Data as given in PubChem BioAssay AID1259405 (NCATS, 2018).

Purpose: 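Mouse-designed siRNAs used to find CHO productivity engineering targets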 (primary screen)
Cell system: Chinese hamster CHO-K1 ovary cells with stable secreted eGFP expression
Reagent: single siRNA against mouse genes, 0.8 pmol siRNA per well (2 µl of 400 nM stock)
Timing: 3 days
Measured: 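Percent of the per-plate non-targeting control median for intracellular GFP per well by laser scanning cytometry and for cell viability by ATP luminescence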
Scale: GFP, % of control: higher = more GFP per well, higher productivity; viability (ATP), % of control: higher = more viable cells (more ATP)
Active means: 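Called active when intracellular GFP, relative to negative control, is at or above 120%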
This is one part, drawn at random, of about 50,000 reagents. About 4,000 of them (8%) count as active. 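Mouse siRNA library applied to hamster cells; one well for each siRNA.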 The numbers tell different reagents against one gene apart.

| gene symbol | siRNA no. | GFP, % of control | viability (ATP), % of control | Outcome |
| --- | --- | --- | --- | --- |
| 1700029H14Rik (RIKEN cDNA 1700029H14 gene) | 1 | 83.3 | 77 | inactive |
| 1700029H14Rik (RIKEN cDNA 1700029H14 gene) | 2 | 80.1 | 65.3 | inactive |
| 1700029H14Rik (RIKEN cDNA 1700029H14 gene) | 3 | 56.5 | 62.9 | inactive |
| Cldn2 (claudin 2) | 1 | 73.3 | 74.8 | inactive |
| Cldn2 (claudin 2) | 2 | 85.3 | 82.8 | inactive |
| Cldn2 (claudin 2) | 3 | 52.9 | 65.3 | inactive |
| Nif3l1 (Ngg1 interacting factor 3-like 1 (S. pombe)) | 1 | 51.7 | 57.4 | inactive |
| Nif3l1 (Ngg1 interacting factor 3-like 1 (S. pombe)) | 2 | 65.2 | 57.3 | inactive |
| Nif3l1 (Ngg1 interacting factor 3-like 1 (S. pombe)) | 3 | 96.3 | 83.9 | inactive |
| Defb39 (defensin beta 39) | 1 | 55.4 | 85.2 | inactive |
| Defb39 (defensin beta 39) | 2 | 133 | 101 | active |
| Defb39 (defensin beta 39) | 3 | 61.1 | 62.3 | inactive |
| Nxnl2 (nucleoredoxin-like 2) | 1 | 97 | 69.3 | inactive |
| Nxnl2 (nucleoredoxin-like 2) | 2 | 59.9 | 59.9 | inactive |
| Nxnl2 (nucleoredoxin-like 2) | 3 | 68.3 | 99.2 | inactive |
| Grcc10 (gene rich cluster, C10 gene) | 1 | 65.2 | 62.5 | inactive |
| Grcc10 (gene rich cluster, C10 gene) | 2 | 70.7 | 55.1 | inactive |
| Grcc10 (gene rich cluster, C10 gene) | 3 | 68.2 | 77.3 | inactive |
| Glp2r (glucagon-like peptide 2 receptor) | 1 | 58.9 | 68.8 | inactive |
| Glp2r (glucagon-like peptide 2 receptor) | 2 | 80.2 | 77.7 | inactive |
| Chml (choroideremia-like) | 1 | 97.8 | 45 | inactive |
| Chml (choroideremia-like) | 2 | 86.5 | 96.6 | inactive |
| Chml (choroideremia-like) | 3 | 56.5 | 56.9 | inactive |
| Or5t7 (olfactory receptor family 5 subfamily T member 7) | 1 | 75.1 | 79.6 | inactive |
| Or5t7 (olfactory receptor family 5 subfamily T member 7) | 2 | 73.8 | 71.1 | inactive |
| Or5t7 (olfactory receptor family 5 subfamily T member 7) | 3 | 71.5 | 40.8 | inactive |
| Brd2 (bromodomain containing 2) | 1 | 83.8 | 114 | inactive |
| Brd2 (bromodomain containing 2) | 2 | 68.4 | 60.5 | inactive |
| Brd2 (bromodomain containing 2) | 3 | 61.6 | 45.6 | inactive |
| Slco2b1 | 1 | 66.9 | 59.5 | inactive |
| Slco2b1 | 2 | 49.4 | 65.3 | inactive |
| Slco2b1 | 3 | 70.9 | 74.2 | inactive |
| Rwdd1 (RWD domain containing 1) | 1 | 63.3 | 60.2 | inactive |
| Rwdd1 (RWD domain containing 1) | 2 | 69.9 | 63 | inactive |
| Rwdd1 (RWD domain containing 1) | 3 | 70.3 | 68.3 | inactive |

5 entries from above, showing only “viability (ATP), % of control”.
Nif3l1 (Ngg1 interacting factor 3-like 1 (S. pombe)) #2: 57.3
Nif3l1 (Ngg1 interacting factor 3-like 1 (S. pombe)) #3: 83.9
Defb39 (defensin beta 39) #1: 85.2
Defb39 (defensin beta 39) #2: 101
Defb39 (defensin beta 39) #3: 62.3

Further results:
| gene symbol | siRNA no. | GFP, % of control | viability (ATP), % of control | Outcome |
| --- | --- | --- | --- | --- |
| Phactr3 (phosphatase and actin regulator 3) | 1 | 103 | 47.4 | inactive |
| Phactr3 (phosphatase and actin regulator 3) | 2 | 111 | 96.7 | inactive |
| Phactr3 (phosphatase and actin regulator 3) | 3 | 82.6 | 77.7 | inactive |
| Tfcp2l1 (transcription factor CP2-like 1) | 1 | 52.6 | 102 | inactive |
| Tfcp2l1 (transcription factor CP2-like 1) | 2 | 49.4 | 45.1 | inactive |
| Tfcp2l1 (transcription factor CP2-like 1) | 3 | 107 | 116 | inactive |
| Sh3pxd2b (SH3 and PX domains 2B) | 1 | 44.1 | 39.2 | inactive |
| Sh3pxd2b (SH3 and PX domains 2B) | 2 | 66.8 | 73.9 | inactive |
| Sh3pxd2b (SH3 and PX domains 2B) | 3 | 151 | 70.9 | active |
| Tmtc3 (transmembrane and tetratricopeptide repeat containing 3) | 1 | 113 | 71.3 | inactive |
| Tmtc3 (transmembrane and tetratricopeptide repeat containing 3) | 2 | 72.3 | 90.2 | inactive |
| Tmtc3 (transmembrane and tetratricopeptide repeat containing 3) | 3 | 68.7 | 61.4 | inactive |
| Batf3 (basic leucine zipper transcription factor, ATF-like 3) | 1 | 94.3 | 54.9 | inactive |
| Batf3 (basic leucine zipper transcription factor, ATF-like 3) | 2 | 43 | 39.2 | inactive |
| Batf3 (basic leucine zipper transcription factor, ATF-like 3) | 3 | 87.6 | 103 | inactive |
| Gle1 (GLE1 RNA export mediator) | 1 | 43.5 | 66.3 | inactive |
| Gle1 (GLE1 RNA export mediator) | 2 | 45.5 | 43 | inactive |
| Gle1 (GLE1 RNA export mediator) | 3 | 68.2 | 94.2 | inactive |
| Trim62 (tripartite motif-containing 62) | 1 | 79.5 | 70.5 | inactive |
| Trim62 (tripartite motif-containing 62) | 2 | 96.5 | 64.6 | inactive |
| Trim62 (tripartite motif-containing 62) | 3 | 78.7 | 105 | inactive |
| BC005624 (cDNA sequence BC005624) | 1 | 45.3 | 59.7 | inactive |
| BC005624 (cDNA sequence BC005624) | 2 | 94.6 | 105 | inactive |
| BC005624 (cDNA sequence BC005624) | 3 | 147 | 139 | active |
